One assay deals with T1, Vap33-V5 (Drosophila) (UniProt Q9W4N8).
T1 sequence: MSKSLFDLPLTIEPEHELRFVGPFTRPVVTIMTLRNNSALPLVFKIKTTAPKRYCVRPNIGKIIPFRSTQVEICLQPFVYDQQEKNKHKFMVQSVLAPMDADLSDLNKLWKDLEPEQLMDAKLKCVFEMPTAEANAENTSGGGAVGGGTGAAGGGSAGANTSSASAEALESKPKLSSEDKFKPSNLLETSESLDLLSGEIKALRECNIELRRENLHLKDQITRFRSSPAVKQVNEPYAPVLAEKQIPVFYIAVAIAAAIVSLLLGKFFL
Nature of the assay: co-IP.

For assay [1], the target named is RtGEF tagged with HA (Drosophila). Nature of the assay: co-IP.

These are yes or no findings as the source states them, for the method shown. In cells and extracts the contact can be indirect. Binding can be weak; no strength is given. Where a sequence is shown, tags or fusion partners need not be part of it.

The values that follow come from doi:10.1101/2023.07.10.548302.

Turning to RtGEF tagged with HA (Drosophila), the binding entry with Vap33-V5 (Drosophila) is reported as “binds”.

B1: Vap33-V5 (protein, UniProt Q9W4N8 1-269)
chain: T1 sequence
In the case of B1, the binding entry in assay [1] was “binds”.
